Assay results reported in patent US9458195B2 (Ipsen Pharma S.A.S., priority 2005, dated 2016).
Bridges are numbered along the chain shown (N, C = ends). Where no end group is shown, it is not given here. [ ]: non-standard residue; d: D form. Bip = N[C@@H](Cc1ccc(-c2ccccc2)cc1)C(=O)O; 1Nal = N[C@@H](Cc1cccc2ccccc12)C(=O)O; 2Nal = N[C@@H](Cc1ccc2ccccc2c1)C(=O)O; d2Nal = N[C@H](Cc1ccc2ccccc2c1)C(=O)O; hArg = N=C(N)NCCCC[C@H](N)C(=O)O; hCha = N[C@@H](CCC1CCCCC1)C(=O)O; Cha = N[C@@H](CC1CCCCC1)C(=O)O; hLeu = CC(C)CC[C@H](N)C(=O)O; Nle = CCCC[C@H](N)C(=O)O; Ahx = NCCCCCC(=O)O; GABA = NCCCC(=O)O; βAla = NCCC(=O)O

Experiment: peptide synthesis
Conditions: whole synthesis

Substance	purity (crude or final not stated) [%]	final HPLC purity [%]	isolated yield [%]
Ac-A6c-c(Asp-His-D-Phe-Arg-Trp-Gaba-Lys)-NH2	93	–	–
Ac-Cha-c(Asp-His-D-2-Nal-Arg-Trp-Gaba-Lys)-NH2	100	–	–
Ac-Cha-c(Asp-His-D-Phe-Arg-Trp-Gaba-Lys)-NH2	–	94.5	8.9
Ac-Cha-c(Asp-His-D-Phe-Arg-Trp-Gaba-Lys)-NH2;	94.5	–	–
Ac-Chg-c(Asp-His-D-Phe-Arg-Trp-Gaba-Lys)-NH2	99	–	–
Ac-D-2-Nal-c(Asp-His-D-Phe-Arg-Trp-Gaba-Lys)-NH2	92.6	–	–

Experiment: general procedure: Fmoc solid-phase peptide synthesis; Rink Amide MBHA resin (0.58 mmol/g); Wang resin for C-terminal OH; MBHA resin (0.91 mmol/g) for Boc chemistry; DIC/HOBt, double-coupling with HBTU/HOBt/DIEA; HBTU/DIEA (Boc)
Conditions: whole synthesis, scale of the general procedure 0.035 mmol, 0.20 mmol

Substance	purity (crude or final not stated) [%]
Ac-Arg-c(Asp-His-D-Phe-Arg-Trp-Ala-Lys)-NH2	99.0
Ac-Arg-c(Cys-D-Ala-His-D-Phe-Arg-Trp-Pen)-NH2	99
Ac-CEH[dF]RWAC-NH2 (disulfide 1-8)	99.9
Ac-C[dA]H[dF]RWAC-NH2 (disulfide 1-8)	95.2
Ac-C[dA]H[dF]R[2Nal]AC-NH2 (disulfide 1-8)	95.6
Ac-D-Arg-c(Asp-His-D-Phe-Arg-Trp-Ala-Lys)-NH2	98.0
Ac-D-Arg-c(Cys-D-Ala-His-D-Phe-Arg-Trp-Pen)-NH2	96.4
Ac-FCH[dF]RW[GABA]C-NH2 (disulfide 2-8)	95.2
Ac-FDH[dF]R[dW]AK-NH2 (lactam 2-8)	81.9
Ac-LDH[dF]R[dW]AK-NH2 (lactam 2-8)	98.6
Ac-Nle-c(Asp-D-Ala-His-D-Phe-Arg-Bal-Ala-Lys)-NH2	99.9
Ac-Nle-c(Asp-D-Ala-His-D-Phe-Arg-Bal-Lys)-NH2	96.5
Ac-Nle-c(Asp-His-D-2-Nal-Arg-Trp-Ala-Lys)-NH2	99.99
Ac-Nle-c(Asp-His-D-2-Nal-Arg-Trp-βAla-Lys)-NH2	99.99
Ac-Nle-c(Asp-His-D-Phe-Arg-D-Trp-Aha-Lys)-NH2	98
Ac-Nle-c(Asp-His-D-Phe-Arg-D-Trp-Apn-Lys)-NH2	97.3
Ac-Nle-c(Asp-His-D-Phe-Arg-D-Trp-β-Lys)-NH2	82
Ac-Nle-c(Asp-His-D-Phe-Arg-Trp-A6c-Lys)-NH2	96
Ac-Nle-c(Asp-His-D-Phe-Arg-Trp-Apn-Lys)-NH2	99
Ac-Nle-c(Asp-His-D-Phe-Arg-Trp-D-Ala-Lys)-NH2	99.9
Ac-Nle-c(Asp-His-D-Phe-Arg-Trp-β-Ala-Lys)-NH2	96.4

Substance	purity (crude or final not stated) [%]
Ac-Nle-c(Cys-Aib-His-D-Phe-Arg-Trp-Cys)-NH2	80
Ac-Nle-c(Cys-Aib-His-D-Phe-Arg-Trp-D-Cys)-NH2	90
Ac-Nle-c(Cys-D-Abu-His-D-Phe-Arg-Trp-Cys)-NH2	99.9
Ac-Nle-c(Cys-D-Ala-His-D-2-Nal-Arg-Bal-Cys)-NH2	95.6
Ac-Nle-c(Cys-D-Ala-His-D-2-Nal-Arg-Trp-Cys)-NH2	96.1
Ac-Nle-c(Cys-D-Ala-His-D-Phe-Arg-Bal-Cys)-NH2	96.2
Ac-Nle-c(Cys-D-Ala-His-D-Phe-Arg-Trp-Apn-Cys)-NH2	96.8
Ac-Nle-c(Cys-D-Ala-His-D-Phe-Arg-Trp-Cys)-OH	99.9
Ac-Nle-c(Cys-D-Ala-His-D-Phe-Arg-Trp-D-Cys)-NH2	66
Ac-Nle-c(Cys-D-Ala-His-D-Phe-Arg-Trp-Gly-Cys)-NH2	96.8
Ac-Nle-c(Cys-D-Ala-His-D-Phe-Arg-Trp-Pen)-NH2	99.9
Ac-Nle-c(Cys-D-Ala-His-D-Phe-Arg-Trp-Pen)-OH	99.9
Ac-Nle-c(Cys-D-Cha-His-D-Phe-Arg-Trp-Cys)-NH2	96.4
Ac-Nle-c(Cys-D-Glu-His-D-Phe-Arg-Trp-Cys)-NH2	99.9
Ac-Nle-c(Cys-D-Ile-His-D-Phe-Arg-Trp-Cys)-NH2	99.9
Ac-Nle-c(Cys-D-Leu-His-D-Phe-Arg-Trp-Cys)-NH2	97.4
Ac-Nle-c(Cys-D-Tle-His-D-Phe-Arg-Trp-Cys)-NH2	96.5
Ac-Nle-c(Cys-D-Val-His-D-Phe-Arg-Trp-Cys)-NH2	99.9
Ac-Nle-c(Cys-His-D-Phe-Arg-D-Trp-Ahx-Cys)-NH2	99
Ac-Nle-c(Cys-His-D-Phe-Arg-D-Trp-Apn-Cys)-NH2	99
Ac-Nle-c(Cys-His-D-Phe-Arg-D-Trp-D-Ala-Cys)-NH2	99.9

Substance	purity (crude or final not stated) [%]
Ac-Nle-c(Cys-His-D-Phe-Arg-D-Trp-β-Ala-Cys)-NH2	99.9
Ac-Nle-c(Cys-His-D-Phe-Arg-Trp-Apn-Cys)-NH2	99
Ac-Nle-c(Cys-β-Ala-His-D-Phe-Arg-Trp-Cys)-NH2	91
Ac-Nle-c(Cys-β-Ala-His-D-Phe-Arg-Trp-D-Cys)-NH2	94
Ac-Nle-c(D-Cys-Aib-His-D-Phe-Arg-Trp-Cys)-NH2	91
Ac-Nle-c(D-Cys-Aib-His-D-Phe-Arg-Trp-D-Cys)-NH2	95
Ac-Nle-c(D-Cys-Ala-His-D-Phe-Arg-Trp-Cys)-NH2	93
Ac-Nle-c(D-Cys-Ala-His-D-Phe-Arg-Trp-D-Cys)-NH2	65
Ac-Nle-c(D-Cys-D-Ala-His-D-Phe-Arg-Trp-Cys)-NH2	81
Ac-Nle-c(D-Cys-D-Ala-His-D-Phe-Arg-Trp-D-Cys)-NH2	93
Ac-Nle-c(D-Cys-β-Ala-His-D-Phe-Arg-Trp-Cys)-NH2	92
Ac-Nle-c(D-Cys-β-Ala-His-D-Phe-Arg-Trp-D-Cys)-NH2	92
Ac-Nle-c(Pen-D-Ala-His-D-Phe-Arg-Trp-Cys)-NH2	99.9
Ac-Nle-c(Pen-D-Ala-His-D-Phe-Arg-Trp-Pen)-NH2	99.9
Ac-[Cha]DH[dF]R[dW]AK-NH2 (lactam 2-8)	85
Ac-[Nle]CGH[dF]RWC-NH2 (disulfide 2-8)	90
Ac-[Nle]CGH[dF]RW[dC]-NH2 (disulfide 2-8)	91
Ac-[Nle]CH[d2Nal]RW[Ahx]C-NH2 (disulfide 2-8)	99
Ac-[Nle]CH[dF]RW[Ahx]C-NH2 (disulfide 2-8)	98
Ac-[Nle]C[dA]H[d2Nal]R[1Nal]C-NH2 (disulfide 2-8)	94.8
Ac-[Nle]C[dA]H[d2Nal]R[2Nal]C-NH2 (disulfide 2-8)	99.1

Substance	purity (crude or final not stated) [%]
Ac-[Nle]C[dA]H[dF]RWAC-NH2 (disulfide 2-9)	95.3
Ac-[Nle]C[dA]H[dF]RW[dA]C-NH2 (disulfide 2-9)	96.4
Ac-[Nle]C[dA]H[dF]R[1Nal]C-NH2 (disulfide 2-8)	96.6
Ac-[Nle]C[dA]H[dF]R[2Nal]C-NH2 (disulfide 2-8)	97.7
Ac-[Nle]DH[dF]R[dW][dA]K-NH2 (lactam 2-8)	97
Ac-[Nle]D[dA]H[dF]RWK-NH2 (lactam 2-8)	96.2
Ac-[Nle][dC]GH[dF]RWC-NH2 (disulfide 2-8)	96
Ac-[hCha]DH[dF]R[dW]AK-NH2 (lactam 2-8)	87
Ac-[hLeu]DH[dF]R[dW]AK-NH2 (lactam 2-8)	93.8
Ac-c(Cys-Glu-His-D-Phe-Arg-2-Nal-Ala-Cys)-NH2	98.3
D-Phe-c(Cys-His-D-(Et)Tyr-hArg-Bip-β-Ala-D-Cys)-Thr-NH2	99
D-Phe-c(Cys-His-D-(Et)Tyr-hArg-Trp-β-Ala-D-Cys)-Thr-NH2	97
Nle-c(Cys-His-D-Phe-Arg-Trp-Apn-Cys)-NH2	98.5
[dF]CH[dF]RWA[dC]T-NH2 (disulfide 2-8)	99
[dF]CH[dF]RW[βAla][dC]T-NH2 (disulfide 2-8)	93
[dF]CH[dF]R[Bip][βAla][dC]T-NH2 (disulfide 2-8)	99
[dF]CH[dF][hArg]W[βAla][dC]T-NH2 (disulfide 2-8)	96.9
[dF]CH[dF][hArg][Bip][βAla][dC]T-NH2 (disulfide 2-8)	99
nButanoyl-Nle-c(Cys-D-Ala-His-D-Phe-Arg-2-Nal-Cys)-NH2	95.7
nButanoyl-Nle-c(Cys-D-Ala-His-D-Phe-Arg-Trp-Cys)-NH2	99.9

Same assay, conditions: whole synthesis, scale of the general procedure 0.035 mmol, 0.20 mmol; run 1

Substance	purity (crude or final not stated) [%]
Ac-Nle-c(Cys-D-Ala-His-D-Phe-Arg-Trp-Gaba-Cys)-NH2	95.1
Ac-Nle-c(Cys-D-Ala-His-D-Phe-Arg-Trp-β-Ala-Cys)-NH2	98.2

Same assay, conditions: whole synthesis, scale of the general procedure 0.035 mmol, 0.20 mmol; run 2

Substance	purity (crude or final not stated) [%]
Ac-Nle-c(Cys-D-Ala-His-D-Phe-Arg-Trp-Gaba-Cys)-NH2	96.5
Ac-Nle-c(Cys-D-Ala-His-D-Phe-Arg-Trp-β-Ala-Cys)-NH2	97.3
